Values quoted from earlier work as cited in patent US20200078478A1, “Structural molecule of peptide derivative for PSMA-targeting radiotherapy diagnosis and treatment” (priority 2018, published 2020).

What was measured:
prostate cancer [1] = settings: 100 patients with prostate cancer
[2] = tested on: recurrent prostate cancer; settings: PET/CT, nearly 100 patients
prostate cancer [3] = settings: tumor diagnosis on the prostate

C[N+](C)([11CH3])CCO [C-11-Choline]
positive rate (prostate cancer [1]): 47%

NC1(C(=O)O)CC([18F])C1 (stereo not drawn) [F-18-FACBC, anti-1-amino-3-F-18-fluorocyclobutane-1-carboxylic acid]
positive detection rate of metastatic tumor [2]: 96%
positive detection rate of primary prostate cancer [2]: 74%

C[N+](C)(C[18F])CCO [F-18-FECH, F-18-fluoro-methylcholine]
sensitivity (prostate cancer [3]): 84.7%
specificity (prostate cancer [3]): 91.1%

[18F-].[Na+] [F-18-NaF]
positive rate (prostate cancer [1]): 27%
